Assay: Circulating osteocalcin and insulin levels after osteocalcin delivery (ELISA)
Type: in vivo, mouse
Procedure: First, whether a single intraperitoneal injection of uncarboxylated mouse osteocalcin (osteocalcin) (100 ng/g of body weight) immediately before exercise would improve the exercise capacity of 3 month-old WT mice was tested.
To determine if osteocalcin has the same ability in older mice, 12 and 15 month-old mice that have low circulating osteocalcin levels were injected prior to running with 500 ng/g of body weight of osteocalcin in order to raise their circulating levels substantially. […] This was due to an increase in the phosphorylation of Akt, AMPK and HSL, as well as in glucose uptake, that occurred to a greater extent in oxidative muscles that express Gprc6a at the highest level, than in glycolytic muscles (FIG. 31C-F). Whether chronic delivery of osteocalcin through mini-pumps (90 ng/hour) for 28 days would increase muscle function in 9 month old mice that have the lowest circulating osteocalcin levels was also tested. […] This improved ability to perform exercise was caused in part by an increase in the expression in muscle of the fatty acid transporter Fatp1 and an activation of the Akt pathway (FIG. 31H-).
Serum osteocalcin, PINP, CTX, and insulin levels were measured using ELISA assays. Blood glucose level was measured using an Accu-Check glucometer. Urine 3-MHT was measured as previously described (Aranibar et al., 2011, Anal. Biochem. 410:84-91). […]

uncarboxylated osteocalcin: Recombinant uncarboxylated mouse osteocalcin, bacterially produced, purified on glutathione beads and cleaved from the GST subunit by thrombin (YLGASVPSPDPLEPTREQCELNPACDELSDQYGLKTAYKRIYGITI)
circulating insulin levels (3 month-old WT mice, single i.p. injection 100 ng/g): without affecting
circulating insulin levels (mini-pumps 90 ng/hour for 28 days, 9 month old mice): did not affect
